The source of these data is doi:10.1101/2024.06.26.600663.

Sequences of proteins named here, by UniProt entry; tags and fusion partners are left off.
UniProt Q15021: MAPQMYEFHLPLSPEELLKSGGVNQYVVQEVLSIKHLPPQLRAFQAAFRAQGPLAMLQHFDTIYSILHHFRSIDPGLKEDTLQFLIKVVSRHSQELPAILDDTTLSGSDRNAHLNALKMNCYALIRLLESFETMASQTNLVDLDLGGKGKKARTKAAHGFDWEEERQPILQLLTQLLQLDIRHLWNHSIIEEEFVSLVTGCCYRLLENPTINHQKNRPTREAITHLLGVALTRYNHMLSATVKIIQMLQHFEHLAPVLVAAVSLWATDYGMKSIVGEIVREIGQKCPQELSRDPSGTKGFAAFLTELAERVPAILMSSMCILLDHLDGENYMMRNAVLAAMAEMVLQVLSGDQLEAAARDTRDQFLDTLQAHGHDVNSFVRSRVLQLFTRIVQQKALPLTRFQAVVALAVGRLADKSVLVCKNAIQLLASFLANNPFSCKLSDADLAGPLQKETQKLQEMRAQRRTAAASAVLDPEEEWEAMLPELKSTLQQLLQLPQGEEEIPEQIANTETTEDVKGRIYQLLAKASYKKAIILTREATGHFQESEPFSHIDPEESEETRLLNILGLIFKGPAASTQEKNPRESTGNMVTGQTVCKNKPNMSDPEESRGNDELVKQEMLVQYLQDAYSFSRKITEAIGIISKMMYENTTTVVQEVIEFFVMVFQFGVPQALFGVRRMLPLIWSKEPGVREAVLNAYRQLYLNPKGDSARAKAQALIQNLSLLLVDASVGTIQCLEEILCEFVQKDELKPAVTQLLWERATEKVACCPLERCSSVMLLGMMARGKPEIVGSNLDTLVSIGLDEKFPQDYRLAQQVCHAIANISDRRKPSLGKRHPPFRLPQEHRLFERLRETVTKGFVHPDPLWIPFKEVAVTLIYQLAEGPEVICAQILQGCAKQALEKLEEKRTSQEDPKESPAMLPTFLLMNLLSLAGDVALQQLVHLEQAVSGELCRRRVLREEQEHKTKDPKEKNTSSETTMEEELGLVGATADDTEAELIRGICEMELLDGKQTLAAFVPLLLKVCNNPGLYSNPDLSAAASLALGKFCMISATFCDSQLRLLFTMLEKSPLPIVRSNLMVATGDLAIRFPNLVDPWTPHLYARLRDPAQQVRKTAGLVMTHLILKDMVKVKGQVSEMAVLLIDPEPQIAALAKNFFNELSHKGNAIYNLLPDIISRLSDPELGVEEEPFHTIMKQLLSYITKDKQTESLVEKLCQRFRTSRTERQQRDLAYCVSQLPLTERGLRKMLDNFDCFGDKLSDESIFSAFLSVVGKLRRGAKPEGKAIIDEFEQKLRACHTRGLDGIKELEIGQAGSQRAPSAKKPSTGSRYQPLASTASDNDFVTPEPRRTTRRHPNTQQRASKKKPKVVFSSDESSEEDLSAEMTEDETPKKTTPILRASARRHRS

Substitutions are numbered along the chain they refer to. Results are given in words; binding and its absence hold for the method and conditions named. Some results given as binding are weak or reduced against the parent protein; the word gives no strength. Tags and fused reporters may be left off the sequences shown.

Common to all, as to assay: two-hybrid
For experiment [1], the target named is T1, GAL4-BD-Cnd1 (Cnd1 condensin subunit, wild type, fused to GAL4-BD) (Schizosaccharomyces pombe (fission yeast)) (UniProt O94679).
T1 sequence: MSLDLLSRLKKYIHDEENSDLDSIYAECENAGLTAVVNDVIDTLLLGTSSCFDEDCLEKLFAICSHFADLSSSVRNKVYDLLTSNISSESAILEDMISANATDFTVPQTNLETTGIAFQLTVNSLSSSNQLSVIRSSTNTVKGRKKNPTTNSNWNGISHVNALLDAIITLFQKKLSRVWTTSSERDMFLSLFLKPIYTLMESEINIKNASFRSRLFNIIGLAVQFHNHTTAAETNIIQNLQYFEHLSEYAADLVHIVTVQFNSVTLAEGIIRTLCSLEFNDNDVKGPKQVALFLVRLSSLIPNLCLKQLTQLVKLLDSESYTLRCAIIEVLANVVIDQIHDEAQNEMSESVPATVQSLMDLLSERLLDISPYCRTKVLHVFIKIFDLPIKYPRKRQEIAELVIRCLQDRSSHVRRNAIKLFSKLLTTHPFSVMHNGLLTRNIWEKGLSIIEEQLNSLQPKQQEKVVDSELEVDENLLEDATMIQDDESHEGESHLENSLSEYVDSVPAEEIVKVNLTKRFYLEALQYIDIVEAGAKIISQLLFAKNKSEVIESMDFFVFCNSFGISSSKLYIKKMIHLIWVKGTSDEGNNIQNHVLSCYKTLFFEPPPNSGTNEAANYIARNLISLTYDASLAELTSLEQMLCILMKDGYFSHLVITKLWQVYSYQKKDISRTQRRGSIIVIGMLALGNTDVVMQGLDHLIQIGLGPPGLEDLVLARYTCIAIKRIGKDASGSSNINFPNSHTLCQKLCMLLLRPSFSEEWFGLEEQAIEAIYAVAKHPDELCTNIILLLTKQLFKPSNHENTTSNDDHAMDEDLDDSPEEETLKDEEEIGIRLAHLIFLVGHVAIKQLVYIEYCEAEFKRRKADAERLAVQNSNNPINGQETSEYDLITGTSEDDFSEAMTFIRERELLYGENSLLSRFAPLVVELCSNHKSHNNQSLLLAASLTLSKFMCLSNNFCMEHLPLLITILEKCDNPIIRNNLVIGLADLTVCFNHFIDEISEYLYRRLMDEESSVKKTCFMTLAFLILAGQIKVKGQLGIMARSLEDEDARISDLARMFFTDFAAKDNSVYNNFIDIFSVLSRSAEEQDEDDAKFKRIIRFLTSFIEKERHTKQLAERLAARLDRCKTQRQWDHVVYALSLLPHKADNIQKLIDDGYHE

Experiment [2] addresses T2, GAL4-BD-Cnd1-K658E (Schizosaccharomyces pombe (fission yeast)) (UniProt O94679).
T2 sequence: T1 sequence with K658E

Experiment [3] has as its target T3, GAL4-BD-Cnd1-m1 (Cnd1 with the cnd1-m1 mutations) (Schizosaccharomyces pombe (fission yeast)) (UniProt O94679).
T3 sequence: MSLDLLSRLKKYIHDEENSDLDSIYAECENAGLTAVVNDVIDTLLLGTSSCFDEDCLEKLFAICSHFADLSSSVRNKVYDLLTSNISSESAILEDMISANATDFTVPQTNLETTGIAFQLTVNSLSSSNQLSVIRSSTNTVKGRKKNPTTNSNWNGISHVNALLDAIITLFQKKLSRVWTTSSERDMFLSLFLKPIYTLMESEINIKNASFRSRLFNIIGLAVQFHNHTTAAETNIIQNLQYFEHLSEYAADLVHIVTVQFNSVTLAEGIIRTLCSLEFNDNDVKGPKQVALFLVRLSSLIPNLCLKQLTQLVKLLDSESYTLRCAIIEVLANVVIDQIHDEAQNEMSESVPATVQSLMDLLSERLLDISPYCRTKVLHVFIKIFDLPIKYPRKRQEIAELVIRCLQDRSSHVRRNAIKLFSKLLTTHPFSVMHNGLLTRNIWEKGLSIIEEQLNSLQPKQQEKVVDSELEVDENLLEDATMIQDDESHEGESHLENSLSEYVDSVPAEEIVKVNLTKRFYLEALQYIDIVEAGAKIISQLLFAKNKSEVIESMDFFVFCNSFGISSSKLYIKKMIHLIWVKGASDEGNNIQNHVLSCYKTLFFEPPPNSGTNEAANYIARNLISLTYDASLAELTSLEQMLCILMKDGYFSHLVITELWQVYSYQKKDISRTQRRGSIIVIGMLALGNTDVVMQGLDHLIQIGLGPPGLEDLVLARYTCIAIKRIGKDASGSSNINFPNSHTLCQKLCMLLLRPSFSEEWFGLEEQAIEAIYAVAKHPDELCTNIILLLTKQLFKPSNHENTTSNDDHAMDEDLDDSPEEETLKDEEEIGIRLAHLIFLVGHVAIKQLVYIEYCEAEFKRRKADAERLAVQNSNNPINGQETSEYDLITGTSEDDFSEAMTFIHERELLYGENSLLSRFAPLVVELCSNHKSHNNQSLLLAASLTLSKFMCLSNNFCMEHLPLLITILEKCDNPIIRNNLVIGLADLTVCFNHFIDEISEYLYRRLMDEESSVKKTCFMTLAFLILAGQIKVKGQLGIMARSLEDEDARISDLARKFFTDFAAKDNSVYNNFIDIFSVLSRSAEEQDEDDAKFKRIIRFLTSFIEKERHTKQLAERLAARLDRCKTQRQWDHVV

For experiment [4], the target named is CAP-D2 (human condensin I subunit), two-hybrid fusion (human) (UniProt Q15021).
Experiment [5] deals with T4, CAP-D3 (human condensin II subunit), two-hybrid fusion (human) (UniProt P42695).
T4 sequence: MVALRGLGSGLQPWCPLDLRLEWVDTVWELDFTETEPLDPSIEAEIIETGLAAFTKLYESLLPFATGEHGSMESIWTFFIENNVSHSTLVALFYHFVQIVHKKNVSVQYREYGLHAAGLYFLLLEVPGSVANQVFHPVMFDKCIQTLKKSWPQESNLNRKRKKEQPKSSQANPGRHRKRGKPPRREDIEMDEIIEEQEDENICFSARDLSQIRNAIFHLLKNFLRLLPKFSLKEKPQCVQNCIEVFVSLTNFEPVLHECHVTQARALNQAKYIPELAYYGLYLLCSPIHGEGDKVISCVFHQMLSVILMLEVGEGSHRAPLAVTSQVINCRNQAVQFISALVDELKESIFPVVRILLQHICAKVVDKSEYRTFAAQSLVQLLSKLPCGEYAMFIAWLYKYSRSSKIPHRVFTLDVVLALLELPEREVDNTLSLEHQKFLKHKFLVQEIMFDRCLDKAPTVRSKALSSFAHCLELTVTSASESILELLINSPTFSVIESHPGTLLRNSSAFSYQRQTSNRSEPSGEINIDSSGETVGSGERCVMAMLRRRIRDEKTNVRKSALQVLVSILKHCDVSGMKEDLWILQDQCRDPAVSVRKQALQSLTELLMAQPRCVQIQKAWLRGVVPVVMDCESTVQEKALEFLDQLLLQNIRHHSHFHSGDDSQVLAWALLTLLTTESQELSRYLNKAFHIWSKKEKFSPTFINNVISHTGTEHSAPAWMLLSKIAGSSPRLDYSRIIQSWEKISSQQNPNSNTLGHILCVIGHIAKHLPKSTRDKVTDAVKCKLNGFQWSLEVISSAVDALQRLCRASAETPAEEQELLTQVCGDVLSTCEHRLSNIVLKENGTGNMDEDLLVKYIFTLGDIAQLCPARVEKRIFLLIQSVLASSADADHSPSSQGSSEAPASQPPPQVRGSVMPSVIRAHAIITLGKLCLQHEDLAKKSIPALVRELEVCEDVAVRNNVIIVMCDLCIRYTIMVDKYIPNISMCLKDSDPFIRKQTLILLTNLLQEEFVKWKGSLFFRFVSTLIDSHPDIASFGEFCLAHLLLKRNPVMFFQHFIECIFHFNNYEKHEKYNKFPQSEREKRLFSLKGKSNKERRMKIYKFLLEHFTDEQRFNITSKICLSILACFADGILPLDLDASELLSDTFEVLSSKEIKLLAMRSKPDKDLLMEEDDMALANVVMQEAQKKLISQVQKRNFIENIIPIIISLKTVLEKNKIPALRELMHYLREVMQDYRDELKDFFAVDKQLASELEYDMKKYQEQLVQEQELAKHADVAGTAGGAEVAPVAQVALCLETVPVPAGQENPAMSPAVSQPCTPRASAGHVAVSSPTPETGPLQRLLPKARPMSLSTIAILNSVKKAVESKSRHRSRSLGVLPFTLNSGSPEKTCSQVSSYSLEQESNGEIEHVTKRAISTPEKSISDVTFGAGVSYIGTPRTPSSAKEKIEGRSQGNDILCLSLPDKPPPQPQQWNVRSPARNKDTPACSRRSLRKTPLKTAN

B1: GAL4-AD-Cnd2 (Cnd2 condensin subunit fused to GAL4-AD) (protein, UniProt Q9Y7R3 1-742)
chain: MKRASLGGHAPVSLPSLNDDALEKKRAKENSRKQRELRRSSALHSITPRRESLNNSSPFNSSHQVPVLSNFEEWIKLATDNKINSTNTWNFALIDYFHDMSLLRDGEDINFQKASCTLDGCVKIYTSRIDSVATETGKLLSGLANDSKVLQQTEEGEDAENDDEDLQKKKERKRAQRSVKTLVKDFESIRAKKFELECSFDPLFKKMCADFDEDGAKGLLMNHLCVDQHGRIVFDSSDTVIKDLENKDVEAESQEAVVAAPIESHDTEMTNVHDNISRETLNGIYKCYFTDIDQLTICPSLQGFEFDSKGNLDVSLLKSLSDEVNMITTTSLVDNTMEKTDADAASLSSDSDGEEGHIVHALEEMAYDEENPYVDVVPKAMDESENPDFGVDTEVNMADGSTMNENYSIISTAAANGVYEYFDKSMKKNWAGPEHWRIQALRKNINNASTVFNSSNTAESSDNVSRSLSSTERKKRRELDNAIDFLQEVDVEALFTPATSSLKLPKSHWKRHNRCLLPDDYQYDSKRLLQLFLKPKMSVLPNADGEGQLQLNKALDDENDLDGIQPHGFDSDGSDNVDEGIPPYGFGDSDSPKQTPLLTPPSSSGFGDNLLLTARLAKPDMLNYAKRAKKVDVRVLKEKLWKCLDLENTIKENSINSHIEGSEMESEETNMPVKSFFSTVNQLEETYEKKELKDISTSFAFICVLHLANEHNLELTSNEDFSDVFIRPGPNLTTLEALENDV
Take B1: the binding result in experiment [1], in experiment [2] and in experiment [3] was “binds” in each case.

B2: Med4 (human Pmc4), two-hybrid fusion (protein, UniProt Q9NPJ6 1-270)
chain: MAASSSGEKEKERLGGGLGVAGGNSTRERLLSALEDLEVLSRELIEMLAISRNQKLLQAGEENQVLELLIHRDGEFQELMKLALNQGKIHHEMQVLEKEVEKRDSDIQQLQKQLKEAEQILATAVYQAKEKLKSIEKARKGAISSEEIIKYAHRISASNAVCAPLTWVPGDPRRPYPTDLEMRSGLLGQMNNPSTNGVNGHLPGDALAAGRLPDVLAPQYPWQSNDMSMNMLPPNHSSDFLLEPPGHNKENEDDVEIMSTDSSSSSSESD
B2: the binding entry in experiment [4] was “no binding”; in experiment [5] it was “binds”.
